PubChem BioAssay AID1159584 | Peter MacCallum Cancer Centre, 2016

Aim: 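Genes that CDH1-null MCF10A cells selectively depend on to survive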 (primary screen)
Cells: human MCF10A breast epithelial cells, parental and CDH1-null
Knock-down reagent: siRNA against human genes
Read-out: 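Cell viability by CellTiter-Glo ATP luminescence, each line scaled to the mean of mock wells across plates, then CDH1-null over parental ratio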
Direction: CDH1-null / parental viability ratio: higher = CDH1-null cells survive relatively better than parental
This is an unselected part of about 18,000 reagents tested. Not all columns of the deposit are shown. The record does not give: the amount of reagent, the time to read-out.

For CD69, what was measured?
CDH1-null / parental viability ratio: 0.88

With PDK2, what does the deposit list?
CDH1-null / parental viability ratio: 1.05

How did the screen score SNRNP70?
CDH1-null / parental viability ratio: 0.95

What did the screen give for GMDS?
CDH1-null / parental viability ratio: 0.84

How did the screen score CHCHD4?
CDH1-null / parental viability ratio: 1.12

For AK8, what was measured?
CDH1-null / parental viability ratio: 0.71

What did the screen give for QRFPR?
CDH1-null / parental viability ratio: 0.84

How did the screen score SVBP?
CDH1-null / parental viability ratio: 1.05

How did the screen score CA11?
CDH1-null / parental viability ratio: 1.12

For SLC39A9, what does the deposit list?
CDH1-null / parental viability ratio: 1.06

How did the screen score PPM1K?
CDH1-null / parental viability ratio: 1.31

For LIPM, how do the results read?
CDH1-null / parental viability ratio: 1.14

With MPPED1, what does the deposit list?
CDH1-null / parental viability ratio: 0.86

What did the screen give for ZKSCAN2?
CDH1-null / parental viability ratio: 0.7

What is on record for RP2?
CDH1-null / parental viability ratio: 1.09

For HAPSTR1, how do the results read?
CDH1-null / parental viability ratio: 1.13

Which result is listed for BLOC1S1?
CDH1-null / parental viability ratio: 1.07

What did the screen give for TET1?
CDH1-null / parental viability ratio: 0.94

With UPRT, what does the deposit list?
CDH1-null / parental viability ratio: 0.89

With FAM124A, what was measured?
CDH1-null / parental viability ratio: 0.87

What is on record for IPO8?
CDH1-null / parental viability ratio: 1.18

How did the screen score SNAP25?
CDH1-null / parental viability ratio: 1.52

For SLC5A5, what does the deposit list?
CDH1-null / parental viability ratio: 0.84

What is on record for ANO1?
CDH1-null / parental viability ratio: 0.71

Which result is listed for TCF21?
CDH1-null / parental viability ratio: 0.94

For CCDC136, what does the deposit list?
CDH1-null / parental viability ratio: 1.14

For OR7A5, what does the deposit list?
CDH1-null / parental viability ratio: 1.16

Which result is listed for MLANA?
CDH1-null / parental viability ratio: 1.3

What did the screen give for LY6D?
CDH1-null / parental viability ratio: 0.97

For CYB5B, what was measured?
CDH1-null / parental viability ratio: 0.97

With KREMEN1, what does the deposit list?
CDH1-null / parental viability ratio: 1.89

For CMKLR1, how do the results read?
CDH1-null / parental viability ratio: 1.41

For ERVFRD-1, what does the deposit list?
CDH1-null / parental viability ratio: 1.02

Which result is listed for SNX31?
CDH1-null / parental viability ratio: 0.74

What did the screen give for CACNA2D2?
CDH1-null / parental viability ratio: 1.17

Ordered by “CDH1-null / parental viability ratio” (low to high): some entries from above
MPPED1 → CDH1-null / parental viability ratio: 0.86
LIPM → CDH1-null / parental viability ratio: 1.14
PPM1K → CDH1-null / parental viability ratio: 1.31
